According to patent publication US9428552B2, “Stem cell mobilization and tissue repair and regeneration” (Wellstat Therapeutics Corporation, priority 2012, dated 2016):
Part of at least one peptide drawing is inferred or uncertain, most often the ends. Peptide text beside a SMILES is read from it.

Key:
EML-Cl cells = test: CFU-GEMM number of EML cells after 3 hr serum and SCF deprivation; assay type: cell-based, murine
Method: Erythroid myeloid lymphoid (EML) cells are an established multipotent hematopoietic precursor cell line (EML-Cl) that can be maintained in medium including stem cell factor (SCF) and Horse serum (HS). When plated in methylcellulose with cocktail of growth factors EML cells form mixed colonies (CFUmix or CFU-GEMM) containing a mix of erythroid and myeloid cells that can be enumerated after 7 days of incubation.
Starvation of EML-Cl cell line cells of serum and SCF during 3 hr causes majority of CFUmix to develop apoptosis and die, which decreases their number growing in methylcellulose substantially.
EML cells were grown in IMDM with 10% HS and 100 ng/ml of SCF in IMDM and used for all experiments in exponential growth phase.
Cells were washed from serum and growth factor with IMDM two times, counted and placed into 12 ml polypropylene tubes 2×10^6 cells in 2 ml for 3 hr incubation at t-37° C. and 5% CO2.
Cell suspensions after the incubation were centrifuged, diluted 5 times with IMDM and counted using a hemacytometer. Cells were adjusted to 10^3 cells/mL in IMDM and cell suspension was placed into 50 mL tubes with 4.5 mL of Methylcellulose M3434 mixed well and seeded into 35-mm Petri dishes (Falcon BD351008) at 1 mL/dish. Cells were incubated at 37° C., 5% CO2.
CFU were scored using an inverted microscope after 7 days of incubation.

THP-1 cells = test: Cytokine production by THP-1 cells in response to LPS; assay type: cell-based
Method: THP-1 cells activated with 0.2 μM vitamin-D3 (EMD Biosciences Inc) and cultured in cRPMI [RPMI plus 10% ΔFBS (both Lonza)] were transferred to 24-well dishes. Different concentrations of Compound A or related peptides were added (in triplicate) and the plate placed in a 37° C. incubator.
After 1 hour, crude-LPS from E. coli 0111:B4 (20 ng-100 ng/ml final conc) was added to some wells. Supernatant aliquots were taken after 4 hours and cytokine levels determined using a cytokine bead array kit (BD558277).

CFU-GEMM and CFU-GM = test: Mobilization of stem cells into peripheral blood after multiple subcutaneous injections; assay type: in vivo, mice
From the text: This example is based on a protocol for a 5-day course of once-daily Compound A injections into DBA male mice similar to a G-CSF. […]
[…] At 7 days post initial injection, peripheral blood from 3 mice per group was harvested from the orbital plexus using capillary tubes (VWR) and collected into EDTA-containing tubes (VWR). Blood was also harvested and pooled from 3 naïve mice to serve as a naïve control group.

CFU-GEMM = test: Effect of S1P gradient disruption (DOP) on mobilization after multiple subcutaneous injections; assay type: in vivo; conditions: DBA/2J mice, 500 μg/kg s.c. four consecutive days, DOP in drinking water, blood one hour post injection on day 4
Method: In this experiment the inhibitor of S1P lyase activity, 4-deoxypyridoxine (DOP, Sigma-Aldrich) was administrated to mice in the drinking water in order to test if disruption of S1P gradient has an effect on mobilization induced by Compound A. Fifteen week-old DBA/2J male mice (Jackson Laboratories) were divided into 4 groups of 4 mice each. All Mice received glucose drinking water (10 g/L) throughout the duration of the study. DOP ([…]) was added to the glucose water of two groups. Mice were subcutaneously injected for four consecutive days with 500 μg/kg of Compound A or Saline. At one-hour post injections on day 4, peripheral blood from mice was harvested from the orbital plexus using capillary tubes (VWR) and collected into EDTA-containing tubes (BD). To determine mobilization of colony-forming unit cells out of the peripheral blood, mononuclear cells were plated in mouse methylcellulose complete media (R&D Systems). The cells were placed into 35-mm Petri dishes at 100,000 cells per dish with 5 dishes per group. Cells incubated for 11 days in a 37° C. and 5% CO2 humidified incubator. CFU colonies were then scored using an inverted microscope.

[1] = 50 μg/kg, multiple s.c. injections
[2] = 250 μg/kg, multiple s.c. injections
[3] = 750 μg/kg, multiple s.c. injections
[4] = 2.5 mg/kg, multiple s.c. injections
[5] = DBA/2J mice, 250 μg/kg s.c. for 5 consecutive days, blood 7 days post initial injection

In the case of `CC(C)C[C@H](NC(=O)[C@H](CC(=O)O)NC(=O)[C@H](Cc1ccccc1)NC(=O)[C@H](Cc1c[nH]cn1)NC(=O)[C@@H]1CCCN1C(=O)[C@@H](N)Cc1ccccc1)C(=O)N[C@@H](CO)C(=O)N[C@@H](Cc1c[nH]cn1)C(=O)NCC(=O)N[C@@H](CO)C(=O)N[C@@H](C)C(=O)N[C@@H](CCC(N)=O)C(=O)N[C@H](C(=O)N[C@@H](CO)C(=O)N[C@@H](CC(=O)O)C(=O)N[C@@H](CCCCN)C(=O)N1CCC[C@H]1C(=O)O)C(C)C` [Compound A, Phe-Pro-His-Phe-Asp-Leu-Ser-His-Gly-Ser-Ala-Gln-Val-Ser-Asp-Lys-Pro] (H-FPHFDLSHGSAQVSDKP-OH; N-terminus and C-terminus assumed), the “rescue of colony-forming cells (CFUmix/CFU-GEMM) during starvation” value (EML-Cl cells; 3 hr HS and SCF deprivation, compared with combined HS and SCF) is reported as “rescued colony-forming cells”, the “pro-survival effect in presence of S1P3 receptor antagonist CAY10444” value (EML-Cl cells; 3 hr serum and SCF deprivation) is reported as “abrogated” and the “abrogation of pro-survival effect in presence of delipidated HS” value (EML-Cl cells; results not shown) is reported as “not”. The “pro-survival effect in presence of HS” value (EML-Cl cells; results not shown) was “abrogated”, the “inhibition of TNFα secretion at the lowest level tested” value (THP-1 cells; 10 nM) was “maintained” and the “inhibition of TNFα secretion compared with AcSDKP or Compound C” value (THP-1 cells; 4 hours) was “more robust inhibition”. The “CFU-GEMM Fold Increase” value (CFU-GEMM and CFU-GM; [1]) was 2.7 Fold, the “CFU-GEMM GEMM/ml blood” value (CFU-GEMM and CFU-GM; [1]) was 42 GEMM/ml blood and the “CFU-GM Fold Increase” value (CFU-GEMM and CFU-GM; [1]) was 1.3 Fold. For the same compound, the “CFU-GM GM/ml blood” value (CFU-GEMM and CFU-GM; [1]) was 114.8 GM/ml blood, the “CFU-GEMM Fold Increase” value (CFU-GEMM and CFU-GM; [2]) was 2.1 Fold and the “CFU-GEMM GEMM/ml blood” value (CFU-GEMM and CFU-GM; [2]) was 32 GEMM/ml blood. The “CFU-GM Fold Increase” value (CFU-GEMM and CFU-GM; [2]) was 0 Fold, the “CFU-GM GM/ml blood” value (CFU-GEMM and CFU-GM; [2]) was 64 GM/ml blood and the “increase of CFU-GEMM number” value (CFU-GEMM and CFU-GM; [2]) was 2.2 times. For the same compound, the “CFU-GEMM Fold Increase” value (CFU-GEMM and CFU-GM; [3]) was 4.4 Fold, the “CFU-GEMM GEMM/ml blood” value (CFU-GEMM and CFU-GM; [3]) was 67.2 GEMM/ml blood and the “CFU-GM Fold Increase” value (CFU-GEMM and CFU-GM; [3]) was 1.4 Fold. For the same compound, the “CFU-GM GM/ml blood” value (CFU-GEMM and CFU-GM; [3]) was 120 GM/ml blood, the “CFU-GEMM Fold Increase” value (CFU-GEMM and CFU-GM; [4]) was 2 Fold and the “CFU-GEMM GEMM/ml blood” value (CFU-GEMM and CFU-GM; [4]) was 30.4 GEMM/ml blood. The “CFU-GM Fold Increase” value (CFU-GEMM and CFU-GM; [4]) was 1.6 Fold, the “CFU-GM GM/ml blood” value (CFU-GEMM and CFU-GM; [4]) was 136.8 GM/ml blood and the “CFU-GEMM/100000 cells Mean” value (CFU-GEMM and CFU-GM; [5]) was 7.6 CFU-GEMM/100000 cells. For the same compound, the “CFU-GM/100000 cells Mean” value (CFU-GEMM and CFU-GM; [5]) was 11 CFU-GM/100000 cells, the “mobilization of CFU-GEMM” value (CFU-GEMM and CFU-GM; multiple injections, doses from 50 μg/kg up to 2.5 mg/kg) was “effectively mobilized CFU-GEMM” and the “number of white blood cells and CFU-GM in peripheral blood” value (CFU-GEMM and CFU-GM; multiple s.c. injections) was “did not change”. For the same compound, the “mobilizing effect under DOP treatment” value (CFU-GEMM) was “completely abrogated”.
